Laboratory results: PubChem BioAssay AID1625 (Sanford-Burnham Center for Chemical Genomics, 2009)
This is one part of the list.

Test: insulin promoter activators in MIN6 cells, imaging, high-content screening, mouse beta cells (AID 1625);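 also: total cells summed across four imaged fields per well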
Conditions: MIN6 insulin promoter-GFP reporter, measured here: cytotoxicity, nuclei count, at 5 µM

| Structure (SMILES) | cell count |
| --- | --- |
| COc1ccc(C(=O)NCC2(N3CCCCC3)CCCCC2)c(OC)c1OC | 1610 cells |
| N#CC1(Nc2ccccc2)CCN(Cc2ccccc2)CC1 | 1070 cells |
| O=C(OC1CN2CCC1CC2)C1c2ccccc2Oc2ccccc21 (configuration not stated) | 776 cells |
| O=C(NCC1(N2CCOCC2)CCCCC1)c1cc2ccccc2o1 | 948 cells |
| COc1ccc(NC2CCN(CCc3ccccc3)CC2)c(OC)c1 | 1080 cells |
| CCOc1ccc(C)cc1CN(CCCl)CCCl | 1320 cells |
| Cc1ccc(OCC(C)C)c(CN(CCCl)CCCl)c1 | 1090 cells |
| O=C(NCC1(N2CCCCC2)CCCCC1)c1cccc([N+](=O)[O-])c1 | 1280 cells |
| N#CC1(Nc2ccccc2)CCN(CCc2ccccc2)CC1 | 1320 cells |
| COc1ccc(NC2CCN(C(=O)OC(C)(C)C)CC2)cc1 | 1170 cells |
| CN1CCN(CCOC(=O)C(O)(c2ccccc2)c2ccccc2)CC1 | 1460 cells |
| CN(C)c1cccc(C(=O)NCC2(N3CCCCC3)CCCCC2)c1 | 1270 cells |
| COc1ccc(CN(CCCl)CCCl)cc1Cl | 1580 cells |
| CC(C)c1ccc(NC2CCN(C(=O)OC(C)(C)C)CC2)cc1 | 1140 cells |
| COc1ccc(C(=O)NCC2(N3CCOCC3)CCCCC2)cc1OC | 1300 cells |
| O=C(OC1CN2CCC1CC2)C1c2ccccc2C=Cc2ccccc21 (configuration not stated) | 1100 cells |
| N/C(=N\O)c1c(N)no[n+]1[O-] | 1300 cells |
| N#Cc1ccc(C(=O)NCC2(N3CCCCC3)CCCCC2)cc1 | 1280 cells |
| c1ccc(CN2CCC(Nc3ccccc3)CC2)cc1 | 808 cells |
| Fc1ccccc1NC1CCN(Cc2ccccc2)CC1 | 1310 cells |
| CN(C)c1ccc(C(=O)NCC2(N3CCCCC3)CCCCC2)cc1 | 1370 cells |
| CCN1CCC(Nc2cccc(F)c2)CC1 | 1260 cells |
| CC(C)(C)OC(=O)N1CCC(Nc2ccccc2)CC1 | 1100 cells |
| CCOc1ncccc1C(=O)NCC1(N2CCOCC2)CCCCC1 | 1190 cells |
| CCCOc1ccc(C)cc1CN(CCCl)CCCl | 1320 cells |
| CCC(CO)(C(=O)OC1CN2CCC1CC2)c1ccccc1 (configuration not stated) | 1280 cells |
| COc1cc(OC)cc(C(=O)NCC2(N3CCOCC3)CCCCC2)c1 | 1220 cells |
